# Measured data: PubChem BioAssay AID504791 (Drosophila RNAi Screening Center, 2011)
# Screen: 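Factors in Argonaute-based small RNA production and activity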 (primary screen)
# Cells: Drosophila S2-derived reporter cells
# Reagents: long dsRNA against Drosophila genes, about 150-250 ng dsRNA per well (siRNA assay); about 80-120 ng (miRNA assay)
# Timing: about 5 days (siRNA assay); about 4 days (miRNA assay)
# Challenge: copper sulfate induction of reporters: 25 µM (siRNA assay); 200 mM stated (miRNA assay), 1-2 days before reading
# Detection: 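Per-well ratio of Renilla over firefly light, expressed relative to that plate's average ratio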
# Rule for the call: 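a well was a first-pass pick when its plate-scaled ratio rose above 1.5 (siRNA assay) or 1.6 (miRNA assay), or dropped below 0.6; a gene counted only if two separate dsRNAs agreed on retest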
# The deposit covers about 23,000 reagents; this is an unselected part of those with a known target gene and a result. Of all reagents, 199 (0.86%) got an active call. 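Plate-scaled ratios behind the calls are not deposited; printed light signals are raw; many rows marked increased or decreased are still called inactive.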 A plus sign joins genes that one reagent is predicted to hit. Not stated in the record: the direction of the score.
target,amplicon,stable siRNA reporter change,"stable assay Renilla, run 1 (luminescence)","stable assay firefly, run 1 (luminescence)",Call
melt (melted),DRSC11367,,5892,4.47e5,inactive
CG15170,DRSC02471,,6822,3.71e5,inactive
Shrm (Shroom),DRSC06437,,5203,3.55e5,inactive
Shrm (Shroom),DRSC06438,reporter ratio lowered past the hit cutoff,5616,5.13e5,inactive
Shrm (Shroom),DRSC07221,,7138,4.08e5,inactive
Shrm (Shroom),DRSC23067,,6142,3.87e5,inactive
Ugt37D1 (UDP-glycosyltransferase family 37 member D1),DRSC02645,,7566,4.01e5,inactive
"Prosalpha4T1 (Proteasome alpha4 subunit, Testis-specific 1)",DRSC16800,,7036,2.90e5,inactive
GlnRS (Glutaminyl-tRNA synthetase),DRSC14140,,7448,6.66e5,inactive
CG6972,DRSC16159,,8015,4.06e5,inactive
Pcmt (Protein-L-isoaspartate (D-aspartate) O-methyltransferase),DRSC12363,,7259,4.62e5,inactive
Cda4 (Chitin deacetylase-like 4),DRSC20623,,5083,3.05e5,inactive
Cda4 (Chitin deacetylase-like 4),DRSC20641,,5139,3.19e5,inactive
Cda4 (Chitin deacetylase-like 4),DRSC20642,,5532,3.57e5,inactive
RpS17 (Ribosomal protein S17),DRSC11271,,6399,4.01e5,inactive
ORMDL (Orosomucoid 1-like),DRSC11737,,7255,3.82e5,inactive
mRpL40 (mitochondrial ribosomal protein L40),DRSC15749,,5666,4.06e5,inactive
htt (huntingtin),DRSC16970,,6880,3.54e5,inactive
CG4306,DRSC10409,,7528,4.16e5,inactive
phr (photorepair),DRSC07662,,11165,4.53e5,inactive
CG14260,DRSC14755,,5851,3.39e5,inactive
lectin-46Ca,DRSC06612,,4576,4.04e5,inactive
Dro (Drosocin),DRSC07406,,5920,4.00e5,inactive
CG9525,DRSC03249,,6902,3.56e5,inactive
CG34427,DRSC09978,,6011,3.97e5,inactive
CG14053,DRSC17908,,5871,2.90e5,inactive
hook,DRSC03545,,7315,1.37e6,inactive
Snmp1 (Sensory neuron membrane protein 1),DRSC16168,,7028,5.00e5,inactive
CG31659,DRSC00760,,6683,3.46e5,inactive
Dys + snoRNA:Me18S-A1374,DRSC16232,,6227,2.26e5,inactive
CG11151,DRSC19387,,5227,5.39e5,inactive
Uhg2 + snoRNA:Me18S-G1620 + snoRNA:U14:30Ea,DRSC01100,,5340,4.70e5,inactive
grnd (grindelwald),DRSC02020,,7426,4.78e5,inactive
Eaat2 (Excitatory amino acid transporter 2),DRSC00032,,5451,3.94e5,inactive
Eaat2 (Excitatory amino acid transporter 2),DRSC00749,,18347,2.06e5,inactive
feo (fascetto),DRSC19398,,3807,3.96e5,inactive
CG14963,DRSC08422,,6880,4.68e5,inactive
Tps1 (Trehalose-6-phosphate synthase 1),DRSC00269,,13435,8.05e5,inactive
icln,DRSC07630,,5762,2.61e5,inactive
CG3222,DRSC10355,,5796,3.52e5,inactive
CG34355,DRSC13639,,6040,3.90e5,inactive
CG34355,DRSC14520,,6095,3.35e5,inactive
CG34355,DRSC14668,,6535,3.51e5,inactive
CG34355,DRSC21687,,7800,3.92e5,inactive
indra,DRSC08558,,10575,3.71e5,inactive
CG31031 (retired record),DRSC13964,,5312,3.91e5,inactive
CG13160,DRSC06284,,8415,4.47e5,inactive

Next part (9 carried over from the part before).
target,amplicon,stable siRNA reporter change,"stable assay Renilla, run 1 (luminescence)","stable assay firefly, run 1 (luminescence)",Call
icln,DRSC07630,,5762,2.61e5,inactive
CG3222,DRSC10355,,5796,3.52e5,inactive
CG34355,DRSC13639,,6040,3.90e5,inactive
CG34355,DRSC14520,,6095,3.35e5,inactive
CG34355,DRSC14668,,6535,3.51e5,inactive
CG34355,DRSC21687,,7800,3.92e5,inactive
indra,DRSC08558,,10575,3.71e5,inactive
CG31031 (retired record),DRSC13964,,5312,3.91e5,inactive
CG13160,DRSC06284,,8415,4.47e5,inactive
kappaB-Ras + CG30503,DRSC06619,,6650,3.40e5,inactive
kappaB-Ras + CG30503,DRSC07636,,5230,2.92e5,inactive
CG1998,DRSC19829,,4423,4.38e5,inactive
mEFTs (mitochondrial translation elongation factor Ts),DRSC02953,,6359,1.48e6,inactive
CG8460,DRSC03090,,57122,3.02e5,inactive
par-1,DRSC05792,,5215,3.38e5,inactive
par-1,DRSC06098,,7325,3.97e5,inactive
par-1,DRSC06616,reporter ratio raised past the hit cutoff,31662,5.25e5,inactive
par-1,DRSC07660,,6431,3.73e5,inactive
par-1,DRSC07661,,7050,3.25e5,inactive
CG17127,DRSC02581,,7288,3.38e5,inactive
CG33630,DRSC14546,,7183,4.15e5,inactive
zld (zelda),DRSC19486,,5075,4.68e5,inactive
zld (zelda),DRSC21721,,8231,5.03e5,inactive
zld (zelda),DRSC23098,,4643,3.16e5,inactive
Cht12 (Chitinase 12),DRSC03844,,5756,4.01e5,inactive
Acp98AB (retired record),DRSC21837,,8765,8.50e5,inactive
Vps39 (Vacuolar protein sorting 39),DRSC16205,,8625,4.07e5,inactive
CG14857,DRSC14981,,7243,3.82e5,inactive
CycD (Cyclin D),DRSC20233,,3631,3.42e5,inactive
Acsf2 (Acyl-CoA synthetase family member 2),DRSC02172,,9827,4.77e5,inactive
Smox (Smad on X),DRSC18716,,4835,2.93e5,inactive
ana3 (anastral spindle 3),DRSC06289,,6882,3.13e5,inactive
Mvb12 (Multivesicular body subunit 12),DRSC20027,,5868,4.60e5,inactive
CG13998,DRSC02330,,8989,5.69e5,inactive
Acph-1 (Acid phosphatase 1),DRSC14103,,6210,3.43e5,inactive
lncRNA:CR30009 (long non-coding RNA:CR30009),DRSC22952,,3639,3.52e5,inactive
CG31473,DRSC15443,,6934,4.50e5,inactive
CG6479,DRSC10647,,8295,4.03e5,inactive
HSPC300 (Haematopoietic stem/progenitor cell protein 300),DRSC22880,,4072,4.03e5,inactive
CG5554,DRSC04513,,5135,2.90e5,inactive
msopa (male-specific opa containing gene),DRSC11895,,5636,2.29e5,inactive
msopa (male-specific opa containing gene),DRSC23240,,4475,3.27e5,inactive
CG30371,DRSC06835,,6902,3.95e5,inactive
Acbp1 (Acyl-CoA binding protein 1),DRSC03093,,7746,4.71e5,inactive
MagR (Magnetic receptor),DRSC20092,,4511,4.08e5,inactive
